Test results taken from article doi:10.1101/2023.09.28.559955.
These are yes or no findings as the source states them, for the method shown. In cells and extracts the contact can be indirect. Some entries that bind do so weakly or less than the wild type. Where a sequence is shown, tags or fusion partners need not be part of it.

Protein sequences, listed by entry. Tags and fused reporters are not part of them. Lines headed by an entry give the natural chain unless they say otherwise; changes in a name come on top.
UniProt P22147: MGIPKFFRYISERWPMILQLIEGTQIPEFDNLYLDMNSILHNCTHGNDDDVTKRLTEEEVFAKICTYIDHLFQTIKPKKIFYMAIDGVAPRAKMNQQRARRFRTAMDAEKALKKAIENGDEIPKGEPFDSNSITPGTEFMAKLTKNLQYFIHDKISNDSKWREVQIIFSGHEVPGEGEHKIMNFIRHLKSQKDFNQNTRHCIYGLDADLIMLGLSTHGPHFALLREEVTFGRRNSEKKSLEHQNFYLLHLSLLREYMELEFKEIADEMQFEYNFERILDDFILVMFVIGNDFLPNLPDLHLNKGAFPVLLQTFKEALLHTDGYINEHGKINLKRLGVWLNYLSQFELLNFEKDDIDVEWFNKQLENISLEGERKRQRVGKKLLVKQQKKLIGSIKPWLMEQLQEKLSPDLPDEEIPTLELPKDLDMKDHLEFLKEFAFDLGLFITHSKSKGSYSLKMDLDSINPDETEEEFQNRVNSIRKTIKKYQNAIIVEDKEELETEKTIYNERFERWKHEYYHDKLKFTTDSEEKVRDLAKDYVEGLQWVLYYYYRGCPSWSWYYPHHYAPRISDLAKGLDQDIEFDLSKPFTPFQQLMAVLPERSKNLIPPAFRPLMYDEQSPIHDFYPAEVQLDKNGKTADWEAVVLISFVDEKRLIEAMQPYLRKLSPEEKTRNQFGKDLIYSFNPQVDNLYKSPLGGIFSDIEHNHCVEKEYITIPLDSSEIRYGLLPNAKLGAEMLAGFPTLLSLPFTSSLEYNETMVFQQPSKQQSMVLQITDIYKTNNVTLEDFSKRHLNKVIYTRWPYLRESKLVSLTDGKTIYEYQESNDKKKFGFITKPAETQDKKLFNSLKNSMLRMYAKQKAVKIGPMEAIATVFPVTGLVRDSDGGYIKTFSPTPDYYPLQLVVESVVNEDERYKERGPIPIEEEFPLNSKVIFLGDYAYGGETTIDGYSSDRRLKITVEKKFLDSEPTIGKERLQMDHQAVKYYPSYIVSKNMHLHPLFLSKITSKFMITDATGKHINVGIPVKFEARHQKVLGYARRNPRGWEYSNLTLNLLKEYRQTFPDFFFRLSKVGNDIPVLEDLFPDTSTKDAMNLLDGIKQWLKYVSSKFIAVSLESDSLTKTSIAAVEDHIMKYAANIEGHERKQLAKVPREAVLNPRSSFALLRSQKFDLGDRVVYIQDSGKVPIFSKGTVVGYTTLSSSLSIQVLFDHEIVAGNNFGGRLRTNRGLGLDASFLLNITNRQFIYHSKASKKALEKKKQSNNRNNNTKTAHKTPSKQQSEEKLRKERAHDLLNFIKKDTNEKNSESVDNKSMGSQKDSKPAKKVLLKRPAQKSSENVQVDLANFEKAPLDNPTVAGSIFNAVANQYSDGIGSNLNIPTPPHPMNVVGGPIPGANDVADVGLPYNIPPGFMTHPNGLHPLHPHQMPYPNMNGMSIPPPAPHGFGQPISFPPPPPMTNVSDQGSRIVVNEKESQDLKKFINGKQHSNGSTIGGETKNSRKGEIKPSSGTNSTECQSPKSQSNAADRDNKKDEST
UniProt P38873: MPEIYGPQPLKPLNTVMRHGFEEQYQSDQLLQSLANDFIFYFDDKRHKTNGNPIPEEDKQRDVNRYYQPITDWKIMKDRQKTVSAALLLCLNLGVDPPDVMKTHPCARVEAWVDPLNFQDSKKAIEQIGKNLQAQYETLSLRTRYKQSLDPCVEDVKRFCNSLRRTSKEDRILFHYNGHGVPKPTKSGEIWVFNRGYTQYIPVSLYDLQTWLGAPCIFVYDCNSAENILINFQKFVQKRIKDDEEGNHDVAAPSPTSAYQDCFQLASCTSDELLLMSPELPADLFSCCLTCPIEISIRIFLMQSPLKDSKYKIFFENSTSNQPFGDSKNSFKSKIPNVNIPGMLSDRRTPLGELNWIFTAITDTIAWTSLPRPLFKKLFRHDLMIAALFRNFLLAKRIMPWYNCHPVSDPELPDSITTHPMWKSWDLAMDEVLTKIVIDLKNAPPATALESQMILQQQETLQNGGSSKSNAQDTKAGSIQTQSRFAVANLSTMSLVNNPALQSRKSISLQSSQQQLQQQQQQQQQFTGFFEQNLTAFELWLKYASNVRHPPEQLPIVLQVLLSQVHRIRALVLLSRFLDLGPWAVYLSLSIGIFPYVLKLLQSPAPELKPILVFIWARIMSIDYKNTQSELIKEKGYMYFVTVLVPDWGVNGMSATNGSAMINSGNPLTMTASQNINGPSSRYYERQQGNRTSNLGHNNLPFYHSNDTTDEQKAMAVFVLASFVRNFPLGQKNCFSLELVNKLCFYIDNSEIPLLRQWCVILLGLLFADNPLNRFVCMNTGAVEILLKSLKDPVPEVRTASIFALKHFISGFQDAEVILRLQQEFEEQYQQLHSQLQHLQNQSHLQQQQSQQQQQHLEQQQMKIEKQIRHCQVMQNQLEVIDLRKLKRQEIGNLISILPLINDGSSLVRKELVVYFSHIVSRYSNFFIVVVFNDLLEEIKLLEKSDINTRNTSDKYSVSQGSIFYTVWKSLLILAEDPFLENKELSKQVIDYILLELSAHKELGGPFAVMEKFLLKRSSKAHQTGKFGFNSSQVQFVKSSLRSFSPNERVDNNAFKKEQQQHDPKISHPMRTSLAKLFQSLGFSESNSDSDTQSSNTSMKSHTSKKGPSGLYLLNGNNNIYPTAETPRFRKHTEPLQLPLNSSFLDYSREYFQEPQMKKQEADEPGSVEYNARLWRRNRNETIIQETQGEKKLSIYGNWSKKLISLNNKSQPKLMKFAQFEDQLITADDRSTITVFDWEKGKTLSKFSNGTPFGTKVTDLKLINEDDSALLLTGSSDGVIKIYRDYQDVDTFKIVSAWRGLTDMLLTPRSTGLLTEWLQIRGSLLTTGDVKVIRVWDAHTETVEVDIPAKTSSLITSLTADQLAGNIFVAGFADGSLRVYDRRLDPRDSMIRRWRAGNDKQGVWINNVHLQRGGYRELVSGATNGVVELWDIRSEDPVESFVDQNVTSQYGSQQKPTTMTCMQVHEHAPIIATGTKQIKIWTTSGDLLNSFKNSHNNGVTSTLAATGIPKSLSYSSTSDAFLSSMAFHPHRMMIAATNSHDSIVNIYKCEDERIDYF

T1: Gtr1-Flag (S. cerevisiae) (UniProt Q00582)
T1 sequence: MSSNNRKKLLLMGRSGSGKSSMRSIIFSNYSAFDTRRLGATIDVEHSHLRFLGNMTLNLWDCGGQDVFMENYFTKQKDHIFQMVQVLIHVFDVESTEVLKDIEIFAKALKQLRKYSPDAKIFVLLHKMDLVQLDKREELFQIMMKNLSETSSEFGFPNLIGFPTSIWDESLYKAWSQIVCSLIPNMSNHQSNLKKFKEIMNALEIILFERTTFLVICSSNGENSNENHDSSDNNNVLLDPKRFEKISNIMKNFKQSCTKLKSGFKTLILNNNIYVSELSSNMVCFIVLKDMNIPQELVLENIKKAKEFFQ


Key:
Test in all cases: co-IP; anti-Flag antibody (M2) on Dynabeads Protein G, yeast lysates, 2 h at 4°C; 50 mM HEPES pH 7.5, 150 mM NaCl, 1 mM EDTA, NP-40; cells grown in YPL or switched to SL with or without methionine; WT or xrn1Δ cells; RNase A (25 ng/μL) or NMPs added to the lysate where indicated; HA blot
[1] = target: T1, Gtr1-Flag (S. cerevisiae)
[2] = target: catalytically dead (D208A) flag-tagged Xrn1 expressed ectopically from a plasmid (S. cerevisiae) (UniProt P22147)
[3] = target: WT flag-tagged Xrn1 expressed ectopically from a plasmid using the endogenous Xrn1 promoter (S. cerevisiae) (UniProt P22147)
[4] = target: Flag-tagged Xrn1 (S. cerevisiae) (UniProt P22147)

| Molecule | binding [1] | binding [2] | binding [3] | binding [4] |
| --- | --- | --- | --- | --- |
| Kog1-HA (from UniProt P38873 1-1557) | binds |  |  |  |
| HA-tagged Npr2 (protein, UniProt P39923 1-615) MLSYFQGFVPIHTIFYSVFHPTEGSKIKYEFPPNNLKNHGINFNTFKNYIIPKPILCHKLITFKYGTYRIVCYPVTINSPIYARNFFSFNFVFVFPYDCETSPYEPAITRLGKMFKVLEEQNQLLSKSERDPVFFDLKVLENSTTTPSTAGPSSTPNPSSNTTPTHPTSEKDTKDMRSSRYSDLIKDLGLPQSAFSIQDLLMRIFQDLNNYSECLIPIDEGNAVDIKIFPLLRPPTTCVSLEDVPLSSVNLKKIIDVNWDPTMMSIVPYIDGLNSIAKISKLSNSDPGLVIECIRHLIYYKCVTLSDIFQFSNIYAPSSLIRNFLTDPLMASDCQSYVTFPEVSKISNLPLNKSLGSGDQDSPSFSVRRKSKSSSIPSNPDSRTTSFSSTSRVSQNSSLNSSFSSIYKDWRQSQTSCSSSNIHVINNRNRFLPTRSCLFDLYRSLSQGQTLKTWYESKYMILKENNIDIRRFITFGLEKRIIYRCYSFPVMINAGSREPKEMTPIITKDLVNNDKLLEKRNHNHLLSATGSRNTAQSGNLKPERPSKVSFEMQRVSSLATGKSTMPKLSDEEEGILEESIRNAETFDKICVLLSKPKLEVESYLNELGEFKVINS |  | binds | binds | binds |
| HA-tagged Gtr1 (protein, UniProt Q00582 1-310) MSSNNRKKLLLMGRSGSGKSSMRSIIFSNYSAFDTRRLGATIDVEHSHLRFLGNMTLNLWDCGGQDVFMENYFTKQKDHIFQMVQVLIHVFDVESTEVLKDIEIFAKALKQLRKYSPDAKIFVLLHKMDLVQLDKREELFQIMMKNLSETSSEFGFPNLIGFPTSIWDESLYKAWSQIVCSLIPNMSNHQSNLKKFKEIMNALEIILFERTTFLVICSSNGENSNENHDSSDNNNVLLDPKRFEKISNIMKNFKQSCTKLKSGFKTLILNNNIYVSELSSNMVCFIVLKDMNIPQELVLENIKKAKEFFQ |  | binds | binds | binds |
| GDP-locked Gtr1 (S20L) (protein, UniProt Q00582 1-310) MSSNNRKKLLLMGRSGSGKLSMRSIIFSNYSAFDTRRLGATIDVEHSHLRFLGNMTLNLWDCGGQDVFMENYFTKQKDHIFQMVQVLIHVFDVESTEVLKDIEIFAKALKQLRKYSPDAKIFVLLHKMDLVQLDKREELFQIMMKNLSETSSEFGFPNLIGFPTSIWDESLYKAWSQIVCSLIPNMSNHQSNLKKFKEIMNALEIILFERTTFLVICSSNGENSNENHDSSDNNNVLLDPKRFEKISNIMKNFKQSCTKLKSGFKTLILNNNIYVSELSSNMVCFIVLKDMNIPQELVLENIKKAKEFFQ |  |  |  | binds |
